Results reported in paper PMC4755750.
These are yes or no findings as the source states them, for the method shown. In cells and extracts the contact can be indirect. Sequences can lack the tags named with a protein.

Molecular target: T1, CIDEA-HA (mouse) (UniProt O70302)
T1 sequence: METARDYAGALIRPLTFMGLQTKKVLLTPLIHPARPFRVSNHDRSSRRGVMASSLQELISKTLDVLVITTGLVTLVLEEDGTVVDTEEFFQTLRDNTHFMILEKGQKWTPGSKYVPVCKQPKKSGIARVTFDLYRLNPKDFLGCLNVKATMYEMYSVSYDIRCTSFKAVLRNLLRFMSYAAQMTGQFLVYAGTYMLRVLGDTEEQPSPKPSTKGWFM
Experiment: co-IP; anti-HA or anti-V5 antibody on Dynabeads Protein G incubated with lysate of transfected cells (Hela named for Figure 6K); lysis in 50 mM Tris pH 8.0, 150 mM NaCl, 1% TRITON X-100; Western blot

binding: no binding
Substance: hLIPIN-1γ-v5 (human) (enzyme)
